{
  "source": "PubChem BioAssay AID504467",
  "about": "(National Center for Advancing Translational Sciences (NCATS), 2011)",
  "note": "Among all 330,000 compounds or so, about 7,700 (2.3%) were called active. The inconclusive results got no clear call from the source; some entries with a clear call stand among them for comparison. Calls follow the shape of the dose curve; as a rule, active = well fitted inhibition curve with a large enough effect; inconclusive = small, poorly fitted or top-dose-only effect, or effect the other way; inactive = flat fitted curve, though single readings scatter. Potencies of inconclusive entries are doubtful fits and often do not repeat. Potency is read from the fitted curve at half-maximal effect.",
  "data": [
    {"assay": "qHTS screen for small molecules that inhibit ELG1-dependent DNA repair in human embryonic kidney (HEK293T) cells expressing luciferase-tagged ELG1; also: nearly all actives have a fitted effect of over 55% in size", "settings": "HEK293T ELG1-luciferase reporter, luminescence, 16 h, DNA damage induced by 5-fluorouridine; series mostly up to 46.1 µM", "outline": "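HEK293T cells expressing luciferase-tagged ELG1 (2,000/well) received 5-Fluorouridine plus compound or DMSO for 16 hr at 37 °C. Luciferase was read by ONE-Glo luminescence after 30 min at room temperature.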", "values": [
      {"smiles": "CC(C)c1nnc(NC(=O)c2cccnc2)s1", "Potency": "inconclusive: 20.6 µM [activator, partial curve]"},
      {"smiles": "CC(C)(C)c1ccc(C(=O)COC(=O)CN2C(=O)NC3(CCCC3)C2=O)cc1", "Potency": "inactive"},
      {"smiles": "CC(=O)NC(Cc1c[nH]c2ccccc12)C(=O)Nc1ccc2c(c1)OCO2", "note": "(centres undefined)", "Potency": "inconclusive: 25.9 µM [activator, partial curve, poor fit]"},
      {"smiles": "CCCCCn1c(SCc2ccncc2)nc2cc(C(=O)NCc3ccco3)ccc2c1=O", "Potency": "active: 6.51 µM"},
      {"smiles": "CC(=O)Oc1c(Cl)cc(Cl)cc1/C=C/c1ccc2ccccc2n1", "Potency": "inconclusive: 20.6 µM [activator, partial curve]"},
      {"smiles": "CC(C)(C)NC(=O)NC(=O)COC(=O)CCCc1c[nH]c2ccccc12", "Potency": "inconclusive: 29.1 µM [activator, partial curve, poor fit]"},
      {"smiles": "COc1ccc(NC(=O)c2onc(C)c2Cl)cc1", "Potency": "inconclusive: 13 µM [activator, partial curve]"},
      {"smiles": "CC(C(=O)NCc1ccc(F)cc1)n1ccc2cc(S(=O)(=O)N3CCCC3)ccc21", "note": "(centres undefined)", "Potency": "inconclusive: 29.1 µM [inhibitor, partial curve, poor fit]"},
      {"smiles": "CCSc1nnc(NC(=O)c2ccc(S(=O)(=O)N(C)C)cc2)s1", "Potency": "inconclusive: 20.6 µM [activator, single point]"},
      {"smiles": "COc1cc(OC)cc(-c2sc3ccc(OC)cc3c2-c2ccc(OCCN3CCCCC3)cc2)c1", "Potency": "inconclusive: 14.6 µM [inhibitor, partial curve, poor fit]"},
      {"smiles": "COc1cc(CN(C)CC2CCCN(CCc3ccccc3F)C2)cc(Cl)c1OC", "note": "(centres undefined)", "Potency": "inactive"},
      {"smiles": "O=C(OCC#CCSc1nnc(-c2ccccc2)o1)c1cccs1", "Potency": "inconclusive: 20.6 µM [activator, partial curve, poor fit]"},
      {"smiles": "CC1CCc2c(sc3nc(CSc4ncn[nH]4)[nH]c(=O)c23)C1", "note": "(centres undefined)", "Potency": "inconclusive: 2.06 µM [activator, full curve]"},
      {"smiles": "CC(CN1CCCCC1)NC(=O)c1cccs1", "note": "(centres undefined)", "Potency": "inactive"},
      {"smiles": "O=C(CN(c1ccc(F)cc1)S(=O)(=O)c1ccc2c(c1)OCCO2)Nc1ccccc1", "Potency": "active: 20.6 µM"},
      {"smiles": "CCN1CC2=C(OC(N)=C(C#N)C2c2ccccc2)/C(=C\\c2ccccc2)C1", "note": "(centres undefined)", "Potency": "inconclusive: 20.6 µM [inhibitor, single point]"},
      {"smiles": "COc1ccccc1N1CCN(C(=O)/C=C/c2ccccc2)CC1", "Potency": "inactive"},
      {"smiles": "COc1cc(S(=O)(=O)Nc2ccc(Br)cc2)ccc1N", "Potency": "inconclusive: 29.1 µM [inhibitor, single point]"},
      {"smiles": "O=C(NCc1ccco1)Nc1ccc(Br)cc1", "Potency": "inconclusive: 35.5 µM [activator, single point]"},
      {"smiles": "Cc1ccc2[nH]c3c(c2c1)CCC3=O", "Potency": "inconclusive: 18.4 µM [activator, single point]"},
      {"smiles": "C#CCOCCOCCOCCNc1nc(N2CCN(C(=O)CCCCCCCCCCNC(=O)[C@@H](CCC(=O)O)n3cc(CCCCCN)nn3)CC2)nc(N2CCN(C(=O)CCCCCCCCCCNC(=O)[C@H]([C@@H](C)CC)n3cc(CCCCCN)nn3)CC2)n1", "Potency": "inactive"},
      {"smiles": "C=CCN1CC2(c3ccccc3)CN(CC=C)CC(c3ccccc3)(C1)C2=O", "Potency": "inactive"},
      {"smiles": "O=[N+]([O-])c1ccc(-c2nc(NCC3CCCO3)c3ccccc3n2)cc1", "note": "(centres undefined)", "Potency": "active: 8.2 µM"},
      {"smiles": "Cc1cc(OCCCCCNCCO)cc(C)c1Cl", "Potency": "inconclusive: 25.9 µM [activator, single point]"},
      {"smiles": "CC(=O)N(C(C)=O)c1ccc2nc(C)[nH]c(=O)c2c1", "Potency": "inconclusive: 16.4 µM [inhibitor, single point]"},
      {"smiles": "COc1cc2c(cc1OC)C(COc1ccccc1OC)N(C(=O)c1ccco1)CC2", "note": "(centres undefined)", "Potency": "inconclusive: 29.1 µM [inhibitor, single point]"},
      {"smiles": "COc1cc(/C=N/Nc2nc3c(c(=O)n(C)c(=O)n3C)n2Cc2ccccc2)ccc1OC(=O)c1ccco1", "Potency": "active: 18.4 µM"},
      {"smiles": "CCOc1cc(C(=O)Nc2cnccn2)cc(OCC)c1OCC", "Potency": "inconclusive: 10.3 µM [inhibitor, partial curve, poor fit]"},
      {"smiles": "CCc1ccc(NC(=O)c2cc(-c3ccc4c(c3)OCO4)on2)cc1", "Potency": "inactive"},
      {"smiles": "O=C(CSc1nnc(-c2ccccc2)o1)NC1CC1", "Potency": "inconclusive: 16.4 µM [activator, partial curve]"},
      {"smiles": "CCOC(=O)C1=C(C)N(c2ccc(C)cc2)C(=O)/C1=C\\c1cccs1", "Potency": "inactive"},
      {"smiles": "COc1cc(-n2c(=O)c3ccccc3n(CC(=O)c3ccc(F)cc3)c2=O)cc(OC)c1OC", "Potency": "inactive"},
      {"smiles": "O=C(NCCc1ccccc1)c1ccccc1NC(=O)C1CC=CCC1C(=O)O", "note": "(centres undefined)", "Potency": "inconclusive: 18.4 µM [activator, partial curve]"},
      {"smiles": "Cc1ccc(CCNC(=O)c2cc(-c3ccncc3)nc3ccccc23)cc1", "Potency": "inconclusive: 29.1 µM [inhibitor, single point]"},
      {"smiles": "COc1ccc(OC)c(NC(=O)C2=C(C)Nc3ncnn3C2c2cccs2)c1", "note": "(centres undefined)", "Potency": "inconclusive: 25.9 µM [inhibitor, single point]"},
      {"smiles": "C/C=C/C(=O)N(CC)c1ccccc1C", "Potency": "inactive"},
      {"smiles": "CCCC(=O)Nc1cc2c3c(c1)CC(=O)N3CCC2", "Potency": "inconclusive: 18.3 µM [activator, single point]"},
      {"smiles": "c1ccc(-c2nccc(-c3ccco3)n2)nc1", "Potency": "inconclusive: 25.9 µM [activator, partial curve, poor fit]"},
      {"smiles": "O=C(/C=C/c1ccco1)Nc1cccc(C(=O)Nc2ccccc2C(=O)O)c1", "Potency": "inactive"},
      {"smiles": "c1ccc(CCc2nc(-c3ccccn3)no2)cc1", "Potency": "inconclusive: 16.4 µM [activator, partial curve]"},
      {"smiles": "C=CCn1c(COc2ccc(F)cc2)nnc1SCC(=O)Nc1cccc(S(N)(=O)=O)c1", "Potency": "inconclusive: 1.03 µM [inhibitor, single point]"},
      {"smiles": "O=C(/C=C/c1ccc(Cl)cc1)N1CCN(c2ccc([N+](=O)[O-])c(N3CCOCC3)c2)CC1", "Potency": "active: 18.4 µM"},
      {"smiles": "COc1ccccc1N1CCN(C(=O)c2ccc(COc3cccc4c3OC(C)(C)C4)cc2)CC1", "Potency": "inconclusive: 14.6 µM [inhibitor, single point]"},
      {"smiles": "COC(=O)c1ccc2c(=O)n(CCCCCC(=O)NCc3ccccc3)c(=O)[nH]c2c1", "Potency": "inconclusive: 20.6 µM [inhibitor, partial curve, poor fit]"},
      {"smiles": "CC(Oc1cccc2cccnc12)C(=O)N/N=C/c1ccccc1", "note": "(centres undefined)", "Potency": "inactive"},
      {"smiles": "COc1ccc(C2=CC3=C(Br)C(=O)C(C)(O)C(=O)C3=CO2)cc1", "note": "(centres undefined)", "Potency": "inconclusive: 29.1 µM [activator, partial curve, poor fit]"},
      {"smiles": "C=CCn1nc2ccccc2c1OCCO", "Potency": "inconclusive: 3.55 µM [activator, single point]"},
      {"smiles": "COc1cccc(CN(C)C(=O)c2ccc(OCC(=O)Nc3cccc(C(F)(F)F)c3)c(OC)c2)c1", "Potency": "active: 14.6 µM"},
      {"smiles": "CCc1ccc(NC(=O)c2cc(-c3cccs3)on2)cc1", "Potency": "inconclusive: 25.9 µM [activator, partial curve, poor fit]"},
      {"smiles": "CNC(=O)[C@H]1O[C@@H](n2cnc3c(NCc4cccc(I)c4)ncnc32)[C@H](O)[C@@H]1O", "Potency": "inconclusive: 5.01 µM [activator, full curve, poor fit]"},
      {"smiles": "O=C(Cc1cccs1)Nc1nc2ccccc2s1", "Potency": "inconclusive: 25.9 µM [activator, single point]"},
      {"smiles": "O=S1(=O)[C@H]2C[C@@H]3C=C[C@@]2(CN1Cc1ccc(Cl)cc1)O3", "Potency": "inactive"},
      {"smiles": "CC(=O)Nc1ccc(S(=O)(=O)N(C#N)c2nc(N(C)C)nc(N(C)C)n2)cc1", "Potency": "inactive"},
      {"smiles": "CC(NC(=O)c1ccc2ccccc2n1)c1ccc(S(N)(=O)=O)cc1", "note": "(centres undefined)", "Potency": "inconclusive: 10.3 µM [activator, partial curve]"},
      {"smiles": "CCC(C)(NC(=O)c1ccccn1)C(=O)NC1CCCCC1", "note": "(centres undefined)", "Potency": "inconclusive: 7.08 µM [activator, partial curve, poor fit]"},
      {"smiles": "O=C(C1CCCN(S(=O)(=O)c2cccc3nonc23)C1)N1CCN(c2cccc(Cl)c2)CC1", "note": "(centres undefined)", "Potency": "inconclusive: 16.4 µM [inhibitor, single point]"},
      {"smiles": "COc1cc2nc(CN3CCN(S(=O)(=O)c4ccc(Br)cc4)CC3)[nH]c(=O)c2cc1OC", "Potency": "inconclusive: 8.2 µM [inhibitor, partial curve, poor fit]"},
      {"smiles": "Cc1ccc(S(=O)(=O)N(C)C)cc1NC(=O)C(C)N(C)Cc1sccc1C", "note": "(centres undefined)", "Potency": "inactive"},
      {"smiles": "CC(C)(C)NC(=O)NCCc1ccccc1", "Potency": "inconclusive: 10.3 µM [activator, partial curve]"},
      {"smiles": "COc1ccc2oc(C)c(C(=O)c3ccc([N+](=O)[O-])cc3)c2c1", "Potency": "inconclusive: 29.1 µM [inhibitor, single point]"},
      {"smiles": "O=c1[nH]c2ccc(S(=O)(=O)N3CCCCC3)cc2[nH]1", "Potency": "inactive"},
      {"smiles": "COc1ccc(CC(=O)Oc2ccc(Cl)cc2Br)cc1S(=O)(=O)N1CCOCC1", "Potency": "inactive"},
      {"smiles": "COC(=O)c1sccc1NC(=S)NCc1ccc(Cl)cc1", "Potency": "inactive"},
      {"smiles": "COc1c(C)cc(C(=O)C2CCCN(Cc3ccc(Oc4ncccn4)cc3)C2)cc1C", "note": "(centres undefined)", "Potency": "active: 18.3 µM"},
      {"smiles": "O=C(c1ccc(Cl)c(Cl)c1)N1CCC(=O)N(C(COCc2ccccc2)Cc2ccccc2)CC1", "note": "(centres undefined)", "Potency": "inconclusive: 18.4 µM [inhibitor, single point]"},
      {"smiles": "CCOc1ccc(CCNC(=O)CS(=O)Cc2nc(-c3ccc(C)cc3)oc2C)cc1OCC", "note": "(centres undefined)", "Potency": "inconclusive: 25.9 µM [inhibitor, single point]"},
      {"smiles": "CN(C)c1ccc(CNS(=O)(=O)c2ccc3c(c2)NC(=O)CS3)cc1", "Potency": "inactive"},
      {"smiles": "CCCNC(=O)Nc1ccccc1C(=O)Nc1ccc(OC)cc1", "Potency": "inactive"},
      {"smiles": "CC(C)(C)N(Cc1ccccc1)C(=O)COC(=O)c1cccc([N+](=O)[O-])c1", "Potency": "inconclusive: 29.1 µM [inhibitor, single point]"}
    ]}
  ]
}
